Measurements reported in PubChem BioAssay AID1259272 (Sanger Institute, 2017)
Shown is an unselected part of 794 reagents. 7 of them (0.88%) were called active. 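Essential calls reflect knock-down without drug only, not synergy with drugs; drug exposure length not given.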 A number with no mark means an inactive call. Not all columns of the deposit are shown. Reagent sequences are not shown. Not stated in the record: the amount of reagent, the time to read-out.

Purpose: 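Kinase knock-downs lethal to colorectal cancer cells, with or without anchor drugs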 (primary screen)
Cell system: SW1116 human colorectal cancer cells
Reagent: siRNA pool against human genes
Challenge: anchor drugs BYL719 (1 µM), cetuximab (5 µg/ml) or trametinib (10 nM), or DMSO vehicle; exposure length not given
Measured: 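Cell survival as a fraction of wells given a non-targeting pool, averaged over replicates; robust z-score without drug; synergy score for each of BYL719, cetuximab and trametinib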
Direction: viability z-score, no drug: higher = more cells remaining; strongly negative means essential gene
Call rule: 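a robust z-score under -3 with siRNA and no drug marks the gene essential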
Meaning of the calls: active = essential (knock-down alone); inactive = no change

gene symbol | viability z-score, no drug
PIK3C3 (GeneID 5289) | 0.842
CDK4 (GeneID 1019) | 0.842
STK40 (GeneID 83931) | -0.505
MAP3K19 (GeneID 80122) | -0.7
CASK (GeneID 8573) | -1.18
PRKAR1B (GeneID 5575) | 0.247
PRKCSH (GeneID 5589) | 0.842
MAST4 (GeneID 375449) | 0.605
MAP3K9 (GeneID 4293) | -1.81
RBM10 (GeneID 8241) | -0.905
CSNK1A1 (GeneID 1452) | -0.735
PRKX (GeneID 5613) | 0.722
GUK1 (GeneID 2987) | 0.527
EIF2AK4 (GeneID 440275) | 0.842
LYN (GeneID 4067) | 0.842
ADPGK (GeneID 83440) | 0.842
IKBKB (GeneID 3551) | 0.842
PFKL (GeneID 5211) | 0.842
KRAS (GeneID 3845) | -2.98
EIF2AK3 (GeneID 9451) | 0.726
DLG1 (GeneID 1739) | 0.477
PRPS1 (GeneID 5631) | -0.33
SF3B1 (GeneID 23451) | -3.32 (active)
PDXK (GeneID 8566) | 0.574
PIK3C2G (GeneID 5288) | -0.226
PTK6 (GeneID 5753) | 0.421
ETNK2 (GeneID 55224) | -1.15
ABL1 (GeneID 25) | -0.13
CNOT1 (GeneID 23019) | -2.73
IRAK3 (GeneID 11213) | -1.86
PCK2 (GeneID 5106) | 0.842
CERT1 (GeneID 10087) | 0.842

Entries above whose target name starts with E or e (3):
gene symbol | viability z-score, no drug
EIF2AK4 (GeneID 440275) | 0.842
EIF2AK3 (GeneID 9451) | 0.726
ETNK2 (GeneID 55224) | -1.15

The results go on.
gene symbol | viability z-score, no drug
NEK9 (GeneID 91754) | 0.842
SPHK2 (GeneID 56848) | -0.29
PFKP (GeneID 5214) | 0.159
CDC7 (GeneID 8317) | -3.79 (active)
MAGI3 (GeneID 260425) | 0.842
HCK (GeneID 3055) | 0.842
MTOR (GeneID 2475) | 0.449
NEK10 (GeneID 152110) | -0.261
PIM1 (GeneID 5292) | 0.842
JAK3 (GeneID 3718) | 0.842
GK2 (GeneID 2712) | 0.842
ITPK1 (GeneID 3705) | 0.827
MYLK4 (GeneID 340156) | -1.44
FGFR2 (GeneID 2263) | 0.267
SRPK2 (GeneID 6733) | -0.201
CDKL2 (GeneID 8999) | -0.474
ULK1 (GeneID 8408) | 0.842
MAP2K7 (GeneID 5609) | -0.814
CDKL3 (GeneID 51265) | 0.842
LRRK1 (GeneID 79705) | 0.842
MAPK7 (GeneID 5598) | 0.842
PRPS2 (GeneID 5634) | 0.686
TRIB3 (GeneID 57761) | -0.873
GUCY2EP (GeneID 390226) | 0.842
SMAD2 (GeneID 4087) | -2.04
ULK2 (GeneID 9706) | -1.72
TRPM6 (GeneID 140803) | 0.842
PRKAA1 (GeneID 5562) | 0.842
CSNK1D (GeneID 1453) | 0.784
STK38 (GeneID 11329) | -0.116
CLK4 (GeneID 57396) | 0.582
